These results are taken from patent US8076285B2 (Aicuris GmbH & Co. KG, priority 2006, dated 2011).

The nature of the data set: general procedure: Fmoc solid-phase peptide synthesis; 2-chlorotrityl chloride resin (Iris Biotech), 0.85 mmol/g; TBTU/DIEA.
The mark [1] stands for this setting: late stage modification step, trifluoroacetate.
Setting [2] is: coupling step, trifluoroacetate.
Where [3] appears, read: cyclisation step, trifluoroacetate.

As to “[(3R)-3-Hydroxy-L-leucyl]-L-isoleucyl-D-arginyl-L isoleucyl-L-allothreonyl-glycyl-L-seryl-L-serine bistrifluoroacetate”, the “final purity (method not given)” value under setting [1] was found to be 45% pure. Consider “[(3R)-N^2-(Benzyloxycarbonyl)-3-{(tert-butoxycarbonyl)amino}-L-phenylalanyl]-[(3R)-3-hydroxy-L-leucyl]-L-leucyl-D-arginyl-L-isoleucyl-L-allothreonyl-D-alanyl-[(3S)-3-hydroxy-L-asparaginyl]-L-serine trifluoroacetate”, for which the step yield under setting [2] is reported as 31% of theory. For the substance “[(3R)-3-Hydroxy-L-leucyl]-L-leucyl-D-arginyl-L-isoleucyl-L-seryl-glycyl-[(3S)-3-hydroxy-L-asparaginyl]-L-serinate bistrifluoroacetate”, the step yield under setting [1] is 90% of theory. With “[N^2-(Benzyloxycarbonyl)-D-leucyl]-L-leucyl-[(3R)-3-amino-L-phenylalanyl]-[(3R)-3-hydroxy-L-leucyl]-L-leucyl-D-arginyl-L-isoleucyl-L-threonyl-glycyl-L-asparaginyl-L-serine bistrifluoroacetate”, under “late stage modification step, bistrifluoroacetate”, the step yield is reported as 63.7% of theory. On to “N^2.1-(Benzyloxycarbonyl)-[(3R)-3-amino-4-(dimethylamino)-L-phenylalanyl]-[(3R)-3-hydroxy-L-leucyl]-L-leucyl-D-arginyl-L-isoleucyl-L-allothreonyl-glycyl-[(3S)-3-hydro-xy-L-asparaginyl]-L-serine C^1.9-N^3.1-lactam bistrifluoroacetate”, for which the cyclisation yield under setting [3] is 52% of theory. On to “[(3R)-3-Hydroxy-L-leucyl]-L-leucyl-D-arginyl-L-leucyl-L-allothreonyl-glycyl-L-seryl-L-serine bistrifluoroacetate”, for which, under setting [1], the “purity (crude or final not stated)” value turned out to be 40% pure. With “[(3R)-3-Amino-L-phenylalanyl]-[(3R)-3-hydroxy-L-leucyl]-L-leucyl-D-arginyl-L-isoleucyl-L-allothreonyl-glycyl-glycyl-L-serine C^1.9-N^3.1-lactam bistrifluoroacetate”, for the setting “late stage modification step, of theory from 404A, trifluoroacetate”, the step yield was 97% of theory. Consider “[(3R)-3-Amino-L-phenylalanyl]-[(3R)-3-hydroxy-L-leucyl]-(3-trimethylsilyl-L-alanyl)-D-arginyl-L-isoleucyl-L-allothreonyl-glycyl-L-seryl-L-serine C^1.9-N^3.1-lactam bishydrochloride”, for which the step yield (late stage modification step, of theory from 386A, trifluoroacetate) was 90% of theory. Turning to “[(3R)-3-Amino-3-(pyridin-3-yl)-L-alanyl]-[(3R)-3-hydroxy-L-leucyl]-L-leucyl-D-arginyl-L-isoleucyl-L-allothreonyl-glycyl-[(3R)-3-hydroxy-L-asparaginyl]-L-C^1.9-N^3.1-lactam tristrifluoroacetate”, the step yield under setting [1] is listed as 96% of theory. Regarding “[(3R)-N^2-(Benzyloxycarbonyl)-3-{(tert-butoxycarbonyl)amino}-L-phenylalanyl]-[(3R)-3-hydroxy-L-leucyl]-L-leucyl-D-arginyl-L-phenylalanlyl-L-allothreonyl-glycyl-L-seryl-L-serine trifluoroacetate”, the step yield under setting [2] is given as 49% of theory. With “[(3R)-N^2-(Benzyloxycarbonyl)-3-{(tert-butoxycarbonyl)amino}-L-phenylalanyl]-[(3R)-3-hydroxy-L-leucyl]-L-isoleucyl-D-arginyl-L-isoleucyl-L-allothreonyl-glycyl-L-seryl-L-serine trifluoroacetate”, the step yield under setting [2] is listed as 18% of theory. Same read-out and setting: the value for “Benzyl [N^2-(tert-butoxycarbonyl)-L-leucyl]-D-arginyl-L-isoleucyl-L-allothreoninate trifluoroacetate” was 53% of theory. On to “[(3R)-N^2-(Benzyloxycarbonyl)-3-amino-L-phenylalanyl]-[(3R)-3-hydroxy-L-leucyl]-L-leucyl-D-arginyl-L-isoleucyl-L-allothreonyl-glycyl-[(3S)-3-hydroxy-L-asparaginyl]-L-alanine C^1.9-N^3.1-lactam trifluoroacetate”, for which, under setting [3], the cyclisation yield is on record as 93% of theory.

“[(3R)-3-Amino-L-phenylalanyl]-L-threonyl-L-leucyl-D-arginyl-L-isoleucyl-L-allothreonyl-glycyl-L-seryl C^1.9-N^3.1-lactam bishydrochloride”: where the note is “late stage modification step, of theory from 384A, trifluoroacetate”, the step yield is recorded as 86% of theory. In the case of “[3-tert-Butyl-D-alanyl]-[3-tert-butyl-L-alanyl]-[(3R)-3-amino-L-phenylalanyl]-[(3R)-3-hydroxy-L-leucyl]-L-leucyl-D-arginyl-L-isoleucyl-L-allothreonyl-D-seryl-L-seryl-L-serine C^1.11-N^3.3-lactam”, the step yield (late stage modification step, from compound 448A, trifluoroacetate) is 33% of theory.

As for “[(3R)-N^2-(Benzyloxycarbonyl)-3-amino-L-phenylalanyl]-[(3R)-3-hydroxy-L-leucyl]-(3-trimethylsilyl-L-alanyl)-D-arginyl-L-isoleucyl-L-allothreonyl-glycyl-L-seryl-L-serine C^1.9-N^3.1-lactam trifluoroacetate”, the cyclisation yield (cyclisation step, from 362A, trifluoroacetate) is given as 98% of theory. On to “[(3R)-3-Amino-L-phenylalanyl]-[(3R)-3-hydroxy-L-leucyl]-L-leucyl-D-arginyl-L-iso-leucyl-L-allothreonyl-glycyl-L-phenylalanyl-L-serine C^1.9-N^3.1-lactam bishydrochloride”, for which the step yield under setting [1] was 99% of theory. The same measure, in the same setting: the value for “Benzyl [(3R)-3-hydroxy-L-leucyl]-L-leucyl-D-arginyl-L-isoleucyl-L-allothreonyl-glycyl-L-allothreonyl-L-serinate bistrifluoroacetate” was 78% of theory.

As for “[(3R)-3-Amino-L-phenylalanyl]-[(3R)-3-hydroxy-L-leucyl]-L-leucyl-D-arginyl-L-leucyl-L-allothreonyl-glycyl-L-seryl-L-serine C^1.9-N^3.1-lactam bistrifluoroacetate”, for the setting “late stage modification step, of theory from 389A, trifluoroacetate”, the step yield is 89% of theory. The “purity (crude or final not stated)” value under setting [1] is 85% pure. On to “{(3R)-N^2-[(Benzyloxy)carbonyl]-3-amino-L-phenylalanyl}-[(3R)-3-hydroxy-L-leucyl]-L-leucyl-D-arginyl-L-isoleucyl-L-allothreonyl-glycyl-[(3S)-3-hydroxy-L-asparaginyl]-L-serine trifluoroacetate”, for which the step yield under setting [1] was 87.1% of theory. “[(3R)-N^2-(Benzyloxycarbonyl)-3-amino-L-phenylalanyl]-[(3R)-3-hydroxy-L-leucyl]-L-leucyl-D-arginyl-L-leucyl-L-allothreonyl-glycyl-L-seryl-L-serine C^1.9-N^3.1-lactam trifluoroacetate”: the cyclisation yield (cyclisation step, from 365A, trifluoroacetate) is on record as 87% of theory. Under setting [3], the “final purity (method not given)” value amounted to 39% pure. For “[(3R)-N^2-(tert-Butoxycarbonyl)-3-hydroxy-L-leucyl]-L-leucyl-D-arginyl-L-isoleucyl-L-allothreonyl-glycyl-[(3S)-3-hydroxy-L-asparaginyl]-L-serine trifluoroacetate”, the step yield (late stage modification step, trifluoroacetate, run 1) was 70% of theory and the step yield (late stage modification step, trifluoroacetate, run 2) is 76% of theory.

As for “Benzyl [(3R)-N^2-(tert-butoxycarbonyl)-3-hydroxy-L-leucyl]-L-leucyl-D-arginyl-L-isoleucyl-L-allothreonyl-glycyl-L-seryl-L-serinate trifluoroacetate”, the step yield under setting [2] is 34% of theory. Consider “[3-tert-Butyl-D-alanyl]-[3-tert-butyl-L-alanyl]-[(3R)-3-amino-L-phenylalanyl]-[(3R)-3-hydroxy-L-leucyl]-L-leucyl-D-arginyl-L-isoleucyl-L-allothreonyl-glycyl-L-phenyalanyl-L-serine C^1.11-N^3.3-lactam bistrifluoroacetate”, for which, under setting [1], the step yield is listed as 50% of theory. For the substance “[(3R)-N^2-(Benzyloxycarbonyl)-3-amino-L-phenylalanyl]-[(3R)-3-hydroxy-L-leucyl]-L-leucyl-D-arginyl-L-valyl-L-allothreonyl-glycyl-L-seryl-L-serine bistrifluoroacetate”, the “crude purity (method not given)” value under setting [1] is given as 70% pure. On to “[N^2-(Benzyloxycarbonyl)-D-leucyl]-L-leucyl-[(3R)-3-amino-L-phenylalanyl]-[(3R)-3-hydroxy-L-leucyl]-L-leucyl-D-arginyl-L-isoleucyl-L-threonyl-glycyl-L-asparaginyl-L-serine C N^3,3-lactam trifluoroacetate”, for which the cyclisation yield under setting [3] is given as 88.3% of theory. On to “[(3R)-N^2-(Benzyloxycarbonyl)-3-amino-L-phenylalanyl]-[(3R)-3-hydroxy-L-leucyl]-L-leucyl-D-arginyl-L-isoleucyl-L-allothreonyl-D-seryl-L-seryl-L-serine C^1.9-N^3.1-lactam trifluoroacetate”, for which the cyclisation yield (cyclisation step, from 373A, trifluoroacetate) is on record as 93% of theory.

On to “[(3R)-N^2-(Benzyloxycarbonyl)-3-{(tert-butoxycarbonyl)amino}-L-phenylalanyl]-[(3R)-3-hydroxy-L-leucyl]-L-leucyl-D-arginyl-L-leucyl-L-allothreonyl-glycyl-L-seryl-L-serine trifluoroacetate”, for which, under setting [2], the step yield was 43% of theory. “[(3R)-3-Hydroxy-L-leucyl]-L-leucyl-[N^5-(benzyloxycarbonyl)-D-ornithyl]-L-isoleucyl-L-allothreonyl-glycyl-L-asparaginyl-L-serine Trifluoroacetate”: under setting [1], the step yield is given as 79.3% of theory.

Regarding “{(3R)-N^2-[(9H-Fluoren-9-ylmethoxy)carbonyl]-3-[(tert-butoxycarbonyl)amino]-L-phenylalanyl}-[(3R)-3-hydroxy-L-leucyl]-L-leucyl-[(2R)-2-amino-4-benzyloxycarbonylaminobutyryl]-L-isoleucyl-L-allothreonyl-glycyl-L-seryl-L-serine trifluoroacetate”, under setting [2], the “final purity (method not given)” value was 60% pure and the step yield was 31% of theory.
